According to article PMC9090922:
These are yes or no findings as the source states them, for the method shown. In cells and extracts the contact can be indirect. Some binding calls cover weakened binding; strength is not graded here.

Target: T1, TNF receptor I (mouse (endogenous in MC3T3)) (UniProt P25118)
T1 sequence: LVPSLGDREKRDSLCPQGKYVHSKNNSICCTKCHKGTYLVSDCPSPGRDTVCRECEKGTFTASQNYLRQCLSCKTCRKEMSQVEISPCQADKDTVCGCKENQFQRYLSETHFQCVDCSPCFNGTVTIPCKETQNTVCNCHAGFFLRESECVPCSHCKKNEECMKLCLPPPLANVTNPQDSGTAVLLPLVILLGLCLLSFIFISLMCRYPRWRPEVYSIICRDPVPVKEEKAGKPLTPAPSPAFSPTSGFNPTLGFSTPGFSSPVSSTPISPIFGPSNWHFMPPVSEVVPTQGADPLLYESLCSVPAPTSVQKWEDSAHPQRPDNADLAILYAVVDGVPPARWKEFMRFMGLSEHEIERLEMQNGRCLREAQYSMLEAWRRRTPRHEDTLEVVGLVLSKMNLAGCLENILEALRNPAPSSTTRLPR
Experiment: co-IP; whole-cell lysate of MC3T3 cells overexpressing Klotho; immunoprecipitated with Klotho or TNFR I antibodies on Protein A/G PLUS-Agarose; Western blot with Klotho or TNFR I antibodies

B1: Klotho (protein, UniProt O35082 35-1014)
chain: AEPGQGAQTWARFARAPAPEAAGLLHDTFPDGFLWAVGSAAYQTEGGWRQHGKGASIWDTFTHHSGAAPSDSPIVVAPSGAPSPPLSSTGDVASDSYNNVYRDTEGLRELGVTHYRFSISWARVLPNGTAGTPNREGLRYYRRLLERLRELGVQPVVTLYHWDLPQRLQDTYGGWANRALADHFRDYAELCFRHFGGQVKYWITIDNPYVVAWHGYATGRLAPGVRGSSRLGYLVAHNLLLAHAKVWHLYNTSFRPTQGGRVSIALSSHWINPRRMTDYNIRECQKSLDFVLGWFAKPIFIDGDYPESMKNNLSSLLPDFTESEKRLIRGTADFFALSFGPTLSFQLLDPNMKFRQLESPNLRQLLSWIDLEYNHPPIFIVENGWFVSGTTKRDDAKYMYYLKKFIMETLKAIRLDGVDVIGYTAWSLMDGFEWHRGYSIRRGLFYVDFLSQDKELLPKSSALFYQKLIEDNGFPPLPENQPLEGTFPCDFAWGVVDNYVQVDTTLSQFTDPNVYLWDVHHSKRLIKVDGVVAKKRKPYCVDFSAIRPQITLLREMRVTHFRFSLDWALILPLGNQTQVNHTVLHFYRCMISELVHANITPVVALWQPAAPHQGLPHALAKHGAWENPHTALAFADYANLCFKELGHWVNLWITMNEPNTRNMTYRAGHHLLRAHALAWHLYDDKFRAAQKGKISIALQADWIEPACPFSQNDKEVAERVLEFDIGWLAEPIFGSGDYPRVMRDWLNQKNNFLLPYFTEDEKKLVRGSFDFLAVSHYTTILVDWEKEDPMKYNDYLEVQEMTDITWLNSPSQVAVVPWGLRKVLNWLRFKYGDLPMYVTANGIDDDPHAEQDSLRIYYIKNYVNEALKAYVLDDINLCGYFAYSLSDRSAPKSGFYRYAANQFEPKPSMKHYRKIIDSNGFLGSGTLGRFCPEEYTVCTECGFFQTRKSLLVFISFLVFTFIISLALIFHYSKKGQRSYK
  binding: binds
